Source: PubChem BioAssay AID504467 (National Center for Advancing Translational Sciences (NCATS), 2011)
Among all 330,000 compounds or so, about 7,700 (2.3%) were called active. This list was built around the results that the source calls inconclusive (neither active nor inactive); the mix of calls is not that of the screen. The call rests on the fitted dose curve; in most records, active means well fitted inhibition curve with a large enough effect; inconclusive means small, poorly fitted or top-dose-only effect, or effect the other way; inactive means flat fitted curve, though single readings scatter. Potencies beside an inconclusive call are fits to weak or partial responses and may not hold up.

Test: qHTS screen for small molecules that inhibit ELG1-dependent DNA repair in human embryonic kidney (HEK293T) cells expressing luciferase-tagged ELG1; further: nearly all actives have a fitted effect of over 55% in size
Conditions: HEK293T ELG1-luciferase reporter, luminescence, 16 h, DNA damage induced by 5-fluorouridine; series mostly up to 46.1 µM
Procedure, shortened: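 Step one: seed 2,000 cells per well. Step two: pin-transfer compound or DMSO alongside 5-fluorouridine. Step three: incubate 16 hr, 37 °C, 5% CO2. Step four: add ONE-Glo, wait 30 min, read luminescence.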
Potency means the concentration at half of the fitted maximal effect.

SMILES	Potency
CC12CCC(C(=O)N3CCC(Cc4ccccc4)CC3)(C(=O)C1=O)C2(C)C (centres undefined)	inconclusive: 13 µM [inhibitor, partial curve, poor fit]
Cn1nccc1C(=O)Nc1ccc2c(c1)OCCO2	inconclusive: 10.3 µM [activator, partial curve]
CN(C)c1ccc(NC(=O)CN2C(=O)CC(c3ccccc3)=Nc3ccccc32)cc1	inactive
COc1ccc(CCNC(=O)c2cccnc2)cc1	inactive
CN(C(=O)C1CCOC1)c1nnc(-c2cccnc2)s1 (centres undefined)	inconclusive: 31.6 µM [activator, single point]
N/C(=N\OC(=O)c1ccccc1Cl)c1ccccn1	inconclusive: 0.92 µM [activator, partial curve]
CCO[C@H]1OC(C(=O)N2CCN(Cc3ccccc3)CC2)=C[C@@H](C)[C@@H]1CCCO	inconclusive: 29.1 µM [activator, partial curve, poor fit]
COc1cccc(OC)c1C(=O)OCC(=O)NC(=O)NCc1ccccc1	inconclusive: 20.6 µM [inhibitor, partial curve, poor fit]
Cc1cccc(C)c1NC(=O)/C(C#N)=C/c1ccc(-c2ccc(C(=O)O)cc2)o1	inconclusive: 8.2 µM [activator, partial curve]
CCc1ccccc1NC(=O)C1CCN(C(=O)N2CCOc3ccccc32)CC1	inactive
Cc1cc(N)c2cc(NC(=O)/C=C/c3ccccc3Cl)ccc2n1	inconclusive: 29.1 µM [activator, single point]
CCOC(=O)c1cc2c(ccn2-c2ccc(F)cc2)n1CC(=O)NC(C)(C)C	inconclusive: 25.9 µM [inhibitor, single point]
O=C(NCC1CCCO1)c1ccc([N+](=O)[O-])o1 (centres undefined)	inactive
Cc1csc(SCc2nc3scc(-c4ccccc4)c3c(=O)[nH]2)n1	inconclusive: 29.1 µM [inhibitor, single point]
Cc1cc2ncn(C(=O)N3CCOCC3)c2cc1C	inconclusive: 11.2 µM [activator, partial curve, poor fit]
CCCCNC(=O)C1CCN(Cc2ccccn2)CC1	inactive
COc1cc(Cl)c(C)cc1NC(=O)c1ccc2c(c1)OCO2	inconclusive: 8.2 µM [activator, partial curve]
CCOCCCNC(=S)N(Cc1ccco1)Cc1cc2cc3c(cc2[nH]c1=O)OCCO3	inconclusive: 18.3 µM [inhibitor, single point]
COC(=O)C1C(O)=C(C=NCC(C)N=CC2=C(O)C(C(=O)OC)C(C)(C)CC2=O)C(=O)CC1(C)C (centres undefined)	inconclusive: 18.4 µM [activator, single point]
Cc1ccc(SCC(=O)NCc2ccccc2)cc1	inactive
Fc1cccc(Cl)c1-c1nnc2ccc(C(F)(F)F)cn12	inactive
CCOC(=O)N1[C@@H]2C=C(C)[C@@H]2[C@@H]2[C@@H](C)C(=O)N21	inactive

Reformatted comma-delimited: entries from further up
SMILES,Potency
CN(C(=O)C1CCOC1)c1nnc(-c2cccnc2)s1 (centres undefined),"inconclusive: 31.6 µM [activator, single point]"
N/C(=N\OC(=O)c1ccccc1Cl)c1ccccn1,"inconclusive: 0.92 µM [activator, partial curve]"
CCO[C@H]1OC(C(=O)N2CCN(Cc3ccccc3)CC2)=C[C@@H](C)[C@@H]1CCCO,"inconclusive: 29.1 µM [activator, partial curve, poor fit]"
COc1cccc(OC)c1C(=O)OCC(=O)NC(=O)NCc1ccccc1,"inconclusive: 20.6 µM [inhibitor, partial curve, poor fit]"
Cc1cccc(C)c1NC(=O)/C(C#N)=C/c1ccc(-c2ccc(C(=O)O)cc2)o1,"inconclusive: 8.2 µM [activator, partial curve]"
CCc1ccccc1NC(=O)C1CCN(C(=O)N2CCOc3ccccc32)CC1,inactive
Cc1cc(N)c2cc(NC(=O)/C=C/c3ccccc3Cl)ccc2n1,"inconclusive: 29.1 µM [activator, single point]"
CCOC(=O)c1cc2c(ccn2-c2ccc(F)cc2)n1CC(=O)NC(C)(C)C,"inconclusive: 25.9 µM [inhibitor, single point]"
O=C(NCC1CCCO1)c1ccc([N+](=O)[O-])o1 (centres undefined),inactive
Cc1csc(SCc2nc3scc(-c4ccccc4)c3c(=O)[nH]2)n1,"inconclusive: 29.1 µM [inhibitor, single point]"
Cc1cc2ncn(C(=O)N3CCOCC3)c2cc1C,"inconclusive: 11.2 µM [activator, partial curve, poor fit]"

Additional entries

SMILES	Potency
C/C(=N\NC(=O)c1ccccc1OCCOc1ccccc1)c1ccccc1F	active: 18.3 µM
O=C(CSc1nc2nc(-c3cccs3)cc(C(F)(F)F)c2c(=O)[nH]1)Nc1ccc(F)c(F)c1	inconclusive: 9.2 µM [inhibitor, partial curve]
COc1cc(/C=C2/C(=N)N3N=C(CC(=O)N4CCOCC4)SC3=NC2=O)ccc1OCc1ccccc1	inconclusive: 23.1 µM [activator, partial curve]
COC(=O)CC(=O)CSc1nc2c(cc1C#N)CCC2	inconclusive: 25.9 µM [activator, single point]
CC(C)(C)c1ccc(NC(=O)COC(=O)c2ccc(CN3CCCC3=O)cc2)cc1	inconclusive: 12.6 µM [activator, partial curve]
CCN1CCN(C(=O)c2cc(COc3ccc(C(C)=O)cc3OC)on2)CC1	inconclusive: 20.6 µM [activator, partial curve]
COc1ccc(NC(=O)CSc2nc3ccccc3nc2N2CCOCC2)cc1	inconclusive: 29.1 µM [inhibitor, partial curve, poor fit]
O=C(CSc1nc2ccccc2o1)N/N=C/c1ccccc1C(=O)O	inconclusive: 29.1 µM [activator, single point]
Cc1ccc(N(C(=O)c2nsc(Cl)c2Cl)C(C(=O)NC2CCCC2)c2ccc(O)cc2)cc1C (centres undefined)	inactive
COc1ccc(/C=C2/SC(=O)N(CC(=O)Nc3cc(C)on3)C2=O)cc1OC	inconclusive: 14.6 µM [activator, single point]
Cc1ccc(NC(=O)N2CCCC2C(=O)NCC2CCCO2)cc1 (centres undefined)	inactive
CCCCNc1nc2cccnc2s1	inconclusive: 16.4 µM [activator, partial curve]
COc1ccc(/C=C(\C#N)c2nc3ccccc3[nH]2)cc1O	inconclusive: 6.51 µM [activator, single point]
O=C1ON=C(c2ccccc2)/C1=C/c1ccccc1	inactive
COc1ccc(Cn2c(CCC(=O)Nc3ccc(C)c(C)c3)nc3cccnc32)cc1	inconclusive: 23.1 µM [inhibitor, single point]
CCc1cccc(C)c1NC(=S)NCc1cccn1C	inconclusive: 29.1 µM [activator, single point]
CC(=O)Nc1ccc(NC(=O)c2ccccc2Sc2ccc([N+](=O)[O-])cc2Cl)cc1	inconclusive: 29.1 µM [inhibitor, single point]
Cn1cc(C(=O)N/N=C/c2c(O)ccc3ccccc23)ccc1=O	active: 2.31 µM
O=C(NC1CCCC1)C(c1ccccc1)N(Cc1ccc2c(c1)OCO2)C(=O)Cc1cccs1 (centres undefined)	inconclusive: 25.9 µM [inhibitor, single point]
CCOC(=O)CC(=O)CSc1ccc2nnc(-c3cccc(F)c3)n2n1	inconclusive: 29.1 µM [inhibitor, single point]
O=C(COC(=O)C1(c2ccc(F)cc2)CCCC1)NCc1ccco1	inactive
CCn1c(=S)sc2c(=O)n(CC(=O)NCCCc3ccccc3)c(C)nc21	inconclusive: 20.6 µM [activator, partial curve, poor fit]
